Reference: publication PMC7337067, “Cryo-electron microscopic and X-ray crystallographic analysis of the light-driven proton pump proteorhodopsin reveals a pentameric assembly” (Journal of Structural Biology: X, 2020)
These are yes or no findings as the source states them, for the method shown. Some entries that bind do so weakly or less than the wild type. Tags and fused reporters may be left off the sequences shown. Blank lines part the entries; values can stand above or below the binder they belong to.

Columns and labels:
[1] = biological target: His-tagged green-light absorbing proteorhodopsin (GPR) (γ-proteobacterium) (UniProt Q6J4G7); assay: native gel or EMSA; BN-PAGE of untagged and His-tagged GPR containing E. coli membranes solubilized in DDM
[2] = biological target: green-light absorbing proteorhodopsin (GPR), untagged (γ-proteobacterium) (UniProt Q6J4G7); assay: condition: only acidic conditions (pH not given); SEC; membranes of GPR expressing E. coli solubilized under acidic conditions, analyzed directly by SEC

binding [1]: binds
B1: His-tagged green-light absorbing proteorhodopsin (GPR) (protein, UniProt Q6J4G7 19-250)
chain: AGGGDLDASDYTGVSFWLVTAALLASTVFFFVERDRVSAKWKTSLTVSGLVTGIAFWHYMYMRGVWIETGDSPTVFRYIDWLLTVPLLICEFYLILAAATNVAGSLFKKLLVGSLVMLVFGYMGEAGIMAAWPAFIIGCLAWVYMIYELWAGEGKSACNTASPAVQSAYNTMMYIIIFGWAIYPVGYFTGYLMGDGGSALNLNLIYNLADFVNKILFGLIIWNVAVKESSNA
modifications: all-trans retinal covalently linked via a Schiff base to a conserved lysine

binding [2]: no binding
B2: green-light absorbing proteorhodopsin (GPR), untagged (natural protein, γ-proteobacterium)
chain: MAGGGDLDASDYTGVSFWLVTAALLASTVFFFVERDRVSAKWKTSLTVSGLVTGIAFWHYMYMRGVWIETGDSPTVFRYIDWLLTVPLLICEFYLILAAATNVAGSLFKKLLVGSLVMLVFGYMGEAGIMAAWPAFIIGCLAWVYMIYELWAGEGKSACNTASPAVQSAYNTMMYIIIFGWAIYPVGYFTGYLMGDGGSALNLNLIYNLADFVNKILFGLIIWNVAVKESSNA
modifications: all-trans retinal covalently linked via a Schiff base to a conserved lysine
notes: N-terminal methionine added to the construct; theoretical MW of the monomer 25.5 kDa; Stop codon placed before the HRV 3C site and decahistidine-tag of pZUDF21, so no tag on the protein; Pentamer by crystallography and cryo-EM; also called untagged GPR; tag-free GPR; source: E. coli BL21(DE3) Rosetta2 (pZUDF21stop); purified from Cymal-5 solubilized membranes (Q Sepharose IEC, Superdex 200 SEC); …
